In PubChem BioAssay AID1347076 (National Center for Advancing Translational Sciences (NCATS), 2019):
In all, about 400,000 compounds went through this assay and about 13,000 (3.2%) were called active. Inconclusive means that the source gave no clear call. Such entries were picked first, then a sample of the others. The call rests on the fitted dose curve; in most records, active means well fitted cell-killing curve with a large enough effect; inconclusive means small, poorly fitted or top-dose-only effect, or effect the other way; inactive means flat fitted curve, though single readings scatter. Potencies beside an inconclusive call are fits to weak or partial responses and may not hold up.

test: qHTS assay for MDR1-selective chemotherapeutics: Primary screen using the drug-selected MDR subline cells KB-V1; conditions: KB-V1 MDR cells viability, CellTiter-Glo, 72 h; activity change, negative = cytotoxicity: at 46.1 µM (top of the series); further: nearly all actives have a fitted effect of over 60% in size
Outline: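 Following 72 h at 37 degrees C with compound, KB-V1 cell viability was read by CellTiter-Glo luminescence, medium being phenol-red-free DMEM plus 10% FBS; concentration-response parameters came from normalized, curve-fitted qHTS data.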
On the % scale 0 is the no-effect control and ±100 the full control effect; potency means the concentration at half of the fitted maximal effect.

SMILES | Potency | activity change, negative = cytotoxicity
O=S(=O)(NC1CC1)c1ccc(S(=O)(=O)N2CCCc3ccccc32)cc1 | inconclusive: 16.4 µM [cytotoxic, single point] | –
C=Cn1ccnc1P(=S)(c1ccc2c(c1)c1ccccc1n2CC)c1nccn1C=C | inconclusive: 20.6 µM [cytotoxic, single point] | –
CCn1nc(C(=O)OCc2c(C)noc2C)c2ccccc2c1=O | inconclusive: 0.0046 µM [cytotoxic, full curve, poor fit] | –
CCC(=O)Nc1ccc2c(c1)nc1n2CCN(C2CCCCC2)C1 | inconclusive: 16.4 µM [cytotoxic, single point] | –
CCOC(=O)c1c(C)[nH]c(C)c1C(=O)CSc1nnc(-c2ccc(OC(F)F)cc2)o1 | inconclusive: 20.6 µM [cytotoxic, single point] | –
Cc1ccc2[nH]c(CCN(C)C)c(CC#N)c2c1 | inconclusive: 29.1 µM [cytotoxic, single point] | –
CCNC(=O)CSc1nc2ccccc2c(=O)n1-c1cc(OC)ccc1OC | active: 18.4 µM | –
O=C(N/N=C/c1cccs1)c1cnccn1 | inconclusive: 32.6 µM [rising, single point] | –
CC(=NNC(=O)c1ccncc1)c1cc(Cl)ccc1Cl | – | inactive: 0%
CC(=O)N1CCCc2cc(S(=O)(=O)N3CCC(C)CC3)ccc21 | active: 20.6 µM | –
COc1ccc(-c2csc(NC(=O)[C@H](C)N3C(=O)C4CC=CCC4C3=O)n2)cc1OC (some centres not stated) | inconclusive: 18.4 µM [cytotoxic, single point] | –
CCOc1ncccc1C(=O)NCc1ccc(C)cc1 | active: 18.4 µM | –
Cc1ccc(NC(=O)COc2cccc(Oc3ccccc3)c2)cc1S(=O)(=O)N1CCOCC1 | active: 11.6 µM | –
CCN(CC)c1ccc(CN2CCCCCC2)cc1 | active: 18.4 µM | –
C[C@H](CO)N1C[C@H](C)[C@@H](CN(C)S(=O)(=O)c2cccs2)Oc2ccc(NS(=O)(=O)c3ccccc3)cc2CC1=O | – | inactive: 0.0002%
Cc1cc(C)n2nc(CC(=O)NNC(=O)COc3ccccc3)nc2n1 | inconclusive: 29.1 µM [rising, single point] | –
CN(C)/C(CN1CCOCC1)=C1\N=C(c2ccccc2)OC1=O | active: 16.4 µM | –
CCN(c1ccccc1)S(=O)(=O)c1cccc(C(=O)NCC(c2cccs2)N2CCOCC2)c1 (configuration not stated) | inconclusive: 4.11 µM [cytotoxic, full curve] | –
COc1ccccc1NC(=O)CSc1ccc2nnc(CCNC(=O)c3ccccc3)n2n1 | – | inactive: -6.38%
CCCC(=O)NC(=S)Nc1c(C)cc(Br)cc1C | inconclusive: 29.1 µM [cytotoxic, single point] | –
COc1ccc(-c2nc(C(=O)Nc3ccc(C(C)=O)cc3)nn2-c2cccc(Cl)c2)cc1 | – | inactive: 5.42%
COc1cccc(C(O)c2nc(-c3cccc(C#N)c3)cs2)c1 (configuration not stated) | – | inconclusive: -58.2%
CC(=O)c1ccc(Oc2nc(C)nc3c2oc2ccccc23)cc1 | – | inactive: -11.1%
CCN(CC)c1ccc2cc(-c3nc(-c4ccc(OC)cc4)cs3)c(=O)oc2c1 | active: 18.4 µM | –

Given in markdown: four of the compounds above.

| SMILES | Potency | activity change, negative = cytotoxicity |
| --- | --- | --- |
| CN(C)/C(CN1CCOCC1)=C1\N=C(c2ccccc2)OC1=O | active: 16.4 µM | – |
| CCN(c1ccccc1)S(=O)(=O)c1cccc(C(=O)NCC(c2cccs2)N2CCOCC2)c1 (configuration not stated) | inconclusive: 4.11 µM [cytotoxic, full curve] | – |
| COc1ccccc1NC(=O)CSc1ccc2nnc(CCNC(=O)c3ccccc3)n2n1 | – | inactive: -6.38% |
| CCCC(=O)NC(=S)Nc1c(C)cc(Br)cc1C | inconclusive: 29.1 µM [cytotoxic, single point] | – |

(further entries)

SMILES | Potency | activity change, negative = cytotoxicity
Cc1ccc(NS(=O)(=O)c2ccc(C(=O)N3CCC3)cc2)cc1 | – | inactive: -15.5%
O=C(Nc1ccccc1Cl)N1CCN(c2ccc3nncn3n2)CC1 | inconclusive: 18.4 µM [rising, single point] | –
CCCN(CCC)S(=O)(=O)c1ccc(C(=O)OCCN2C(=O)c3cccc4c(N5CCOCC5)ccc(c34)C2=O)cc1 | active: 14.6 µM | –
COc1ccc(C(=O)Nc2ccccc2C(=O)N/N=C/c2ccccn2)cc1OC | inconclusive: 20.6 µM [cytotoxic, partial curve] | –
CC(C)CN(CC(C)C)CC(O)COc1ccc([N+](=O)[O-])cc1 (configuration not stated) | inconclusive: 29.1 µM [cytotoxic, single point] | –
C[C@H](CO)N1C[C@H](C)[C@@H](CN(C)S(=O)(=O)c2cn(C)cn2)OCc2cn(nn2)CCCC1=O | inconclusive: 20.6 µM [rising, single point] | –
O=C(NCCc1ccc(F)cc1)c1ccc(S(=O)(=O)N2CCCC2)cc1 | inconclusive: 0.58 µM [cytotoxic, full curve, poor fit] | –
O=C(NCC1CCCO1)c1ccc(NC(=O)c2cc(F)c(F)cc2Cl)cc1 (configuration not stated) | inconclusive: 32.6 µM [cytotoxic, single point] | –
O=C1CCSc2ccc(S(=O)(=O)Nc3ccc(Cl)c(C(F)(F)F)c3)cc2N1 | – | inactive: -4.77%
Cc1ccccc1NC(=O)OCc1cn(-c2ccc(Cl)cc2)nn1 | inconclusive: 8.2 µM [cytotoxic, partial curve] | –
NC(=O)c1ccc(N=Cc2c(O)ccc3ccccc23)cc1 | inconclusive: 2.06 µM [cytotoxic, partial curve, poor fit] | –
CSc1ccc(/C=N/NC(=O)CN2CCN(Cc3ccc(C)cc3)CC2)cc1 | inconclusive: 16.4 µM [cytotoxic, partial curve, poor fit] | –
O=C(COC(=O)c1ccccc1OCCOc1ccccc1)Nc1cccc(Br)c1 | – | inactive: 0%
COc1ccc(N2CCN(c3nc(Nc4ccc(C)c(F)c4)nc(N4CCCC4)n3)CC2)cc1 | inconclusive: 10.3 µM [cytotoxic, partial curve] | –
Cc1c(CC(=O)O)c(=O)oc2c(C)c(OCc3c(F)cccc3Cl)ccc12 | inconclusive: 16.4 µM [rising, partial curve, poor fit] | –
Cc1cc(C)cc(OCC(=O)OCc2cc([N+](=O)[O-])cc3c2OCOC3)c1 | – | inactive: 19.6%
CCCn1nc(Oc2nc(SC)nc(N(C)C)n2)ccc1=O | inconclusive: 18.4 µM [cytotoxic, single point] | –
COc1ccc(C=NNC(=S)NN=Cc2ccc(OC)c(OC)c2)cc1OC | active: 0.231 µM | –
CCCCCn1c(=S)[nH]c2cc(C(=O)N3CCCC3)ccc2c1=O | inconclusive: 16.4 µM [cytotoxic, partial curve, poor fit] | –
Clc1ccc(OCc2cc(-c3ccccc3)no2)cc1Cl | inconclusive: 14.6 µM [rising, partial curve, poor fit] | –
OC[C@@H]1CN(Cc2ccc(-c3ccccc3)cc2)C[C@H](n2cnc3c(NC4CCCC4)ncnc32)O1 | – | inactive: -23.1%
O=c1c2ccc([N+](=O)[O-])cc2ncn1Cc1ccccc1C(F)(F)F | – | inconclusive: -30.4%
O=C(NCc1ccco1)c1cccc(-c2ccc3nncn3c2)c1 | – | inactive: -11.8%
O=C(NCC(=O)N1CCN(c2ccccc2F)CC1)c1cccs1 | inconclusive: 29.1 µM [cytotoxic, single point] | –

SMILES | Potency | activity change, negative = cytotoxicity
Cc1noc(C)c1C(=O)N1CCCC(C(=O)c2cccc(C(F)(F)F)c2)C1 (configuration not stated) | – | inactive: -8.45%
O=C(COC(=O)Cc1ccc(Cl)cc1)Nc1ccc(OC(F)F)cc1 | inconclusive: 5.17 µM [rising, full curve] | –
C/C(=N\NC(=O)c1nnn(-c2nonc2N)c1CN(C)c1ccccc1)c1ccccn1 | inconclusive: 29.1 µM [cytotoxic, single point] | –
Cc1cc(C(=O)C(=O)O)c(C)n1-c1ccc(Cl)c(Cl)c1 | inconclusive: 32.6 µM [cytotoxic, single point] | –
O=C(NC1CCCC1)c1cccc(S(=O)(=O)N2CCCC2)c1 | – | inactive: 16.6%
CCCCCCCCN1C(=O)[C@H](CC(=O)N2CCSCC2)C[C@@]2(C(=O)OCC)CCCC=C12 | active: 23.1 µM | –
CCc1cccc(OCC(=O)Nc2ccc(C)c(S(=O)(=O)N3CCCCCC3)c2)c1 | – | inactive: -16.6%
C/C(=C\C(=O)c1ccc(Br)cc1)NCc1ccccc1 | inconclusive: 29.1 µM [cytotoxic, single point] | –
COc1cccc(-c2nc(NC(C)C)c3ccccc3n2)c1O | inconclusive: 23.1 µM [cytotoxic, single point] | –
COc1cccc(C(=O)Nc2ccc(-c3nc4ccccc4o3)c(O)c2)c1 | inconclusive: 8.2 µM [cytotoxic, partial curve] | –
COCCn1nnnc1C(c1ccccc1OC)N1CCc2ccccc2C1 (configuration not stated) | inconclusive: 18.4 µM [cytotoxic, partial curve] | –
Cc1cc(C)nc(NC(=O)/C=C/c2cccs2)c1 | – | inactive: -18.6%
CCc1ccc(CNC(=O)CN2C(=O)COc3ccccc32)cc1 | inconclusive: 20.6 µM [cytotoxic, single point] | –
N#CCC(=O)N/N=C/c1cc(-c2ccccc2)n(-c2ccc(Cl)cc2)c1-c1ccccc1 | – | inactive: -4.5%
CCc1ccc(CN2CCC(n3nccc3NC(=O)c3ccc4c(c3)OCO4)CC2)cc1 | inconclusive: 18.4 µM [cytotoxic, partial curve] | –
O=C(Nc1nc2ccccc2n1CCN1CCOCC1)c1ccc(COc2ccccc2Br)o1 | inconclusive: 8.2 µM [cytotoxic, partial curve] | –
Cc1ccc(CCNC(=O)NCc2noc3ccccc23)cc1 | inconclusive: 20.6 µM [cytotoxic, single point] | –
COCCN1C(=O)c2ccccc2C1c1nnnn1C(C)C (configuration not stated) | – | inactive: 0%
CCOc1cccc(C(=O)Nc2ccc3ccccc3c2)c1 | – | inconclusive: -22.4%
Cc1ccccc1C1N(c2nccs2)C(=O)C2CCCN21 (configuration not stated) | inconclusive: 29.1 µM [rising, single point] | –
COc1ccccc1NC(=O)CN(C)S(=O)(=O)c1ccc2c(c1)c(=O)n(C)c(=O)n2C | – | inactive: 21%
Cc1ccc(N(C(=O)c2ccccc2Cl)C2=NC(C)CS2)c(C)c1 (configuration not stated) | – | inactive: -18.9%
CC1=NN(C(N)=S)C(=O)C1N=Nc1c(Cl)cc([N+](=O)[O-])cc1Cl (configuration not stated) | inconclusive: 29.1 µM [cytotoxic, single point] | –
Cc1c(C(=O)Nc2ccc(F)cc2)oc2ccc(S(=O)(=O)N3CC(C)CC(C)C3)cc12 (configuration not stated) | inconclusive: 5.17 µM [cytotoxic, full curve] | –
